Measurements published in patent US20220324835A1 (Nurix Therapeutics, Inc., priority 2018, published 2022).
Structures were worked out from names or drawings and are uncertain.

Amino acid sequences for entries named in this document (tags omitted). Residues count along the entry.
UniProt Q13191, 36-427 limits assumed: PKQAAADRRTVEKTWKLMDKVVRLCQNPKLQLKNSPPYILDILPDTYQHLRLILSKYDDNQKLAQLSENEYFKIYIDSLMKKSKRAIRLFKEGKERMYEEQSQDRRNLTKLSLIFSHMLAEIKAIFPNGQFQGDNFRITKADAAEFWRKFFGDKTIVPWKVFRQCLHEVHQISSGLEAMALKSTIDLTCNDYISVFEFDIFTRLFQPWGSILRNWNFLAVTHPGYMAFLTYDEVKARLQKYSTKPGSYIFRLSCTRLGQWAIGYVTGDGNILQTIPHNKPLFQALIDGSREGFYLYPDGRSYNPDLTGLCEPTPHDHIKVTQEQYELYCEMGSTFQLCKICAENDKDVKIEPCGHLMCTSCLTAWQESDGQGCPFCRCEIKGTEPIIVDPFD

Legend:
T-cell [1] = test: IL-2 secretion from T-cells co-stimulated with anti-CD3 and anti-CD28 antibody (Biological Example 2); settings: for IL-2 secretion Anti-CD3/Anti-CD28 stimulation: fold change over baseline (anti-CD3/anti-CD28 stimulated T-cells without inhibitor); for IL-2 secretion, Anti-CD3/Anti-CD28 stimulation, fold change over baseline: primary human total T-cells, baseline = anti-CD3/anti-CD28 stimulated cells without inhibitor
T-cell [2] = test: IL-2 secretion from T-cells stimulated with anti-CD3 antibody alone (Biological Example 2); settings: for IL-2 secretion Anti-CD3 stimulation: 1 μM Cbl-b inhibitor, fold change over baseline (anti-CD3/anti-CD28 stimulated T-cells without inhibitor)
T-cell [3] = test: CD25 cell surface staining on T-cells co-stimulated with anti-CD3 and anti-CD28 antibody (Biological Example 2); settings: for CD25 staining Anti-CD3/Anti-CD28 stimulation: fold change over baseline (anti-CD3/anti-CD28 stimulated T-cells without inhibitor); for CD25 staining, Anti-CD3/Anti-CD28 stimulation, fold change over baseline: primary human total T-cells, baseline = anti-CD3/anti-CD28 stimulated cells without inhibitor
T-cell [4] = test: CD25 cell surface staining on T-cells stimulated with anti-CD3 antibody alone (Biological Example 2); settings: for CD25 staining Anti-CD3 stimulation: 1 μM Cbl-b inhibitor, fold change over baseline (anti-CD3/anti-CD28 stimulated T-cells without inhibitor)
Cbl-b = Cbl-b (Homo sapiens, UniProt Q13191); test: Cbl-b activity assay (Cbl-b inhibition assay), TR-FRET of Cbl-b interaction with UbcH5B-Ub; type: biochemical; settings: read-out: Cbl-b activity IC50; assay buffer with 100 mM NaCl, 60 nM Src kinase

SMILES: Cn1cnnc1CC1(c2cccc(N3Cc4c(cc(N5CCN6CCC[C@@H]6C5)cc4C(F)(F)F)C3=O)c2)COC1
- IL-2 secretion Anti-CD3/Anti-CD28 stimulation (T-cell [1]; 0.3 μM Cbl-b inhibitor): A (A indicates ≥7.50 fold)
- IL-2 secretion Anti-CD3/Anti-CD28 stimulation (T-cell [1]; 1 μM Cbl-b inhibitor): A (A indicates ≥7.50 fold)
- IL-2 secretion Anti-CD3 stimulation (T-cell [2]): A (A indicates ≥0.201 fold)
- CD25 staining Anti-CD3/Anti-CD28 stimulation (T-cell [3]; 0.3 μM Cbl-b inhibitor): A (A indicates ≥1.76 fold)
- CD25 staining Anti-CD3/Anti-CD28 stimulation (T-cell [3]; 1 μM Cbl-b inhibitor): A (A indicates ≥1.76 fold)
- CD25 staining Anti-CD3 stimulation (T-cell [4]): A (A indicates ≥1.001 fold)
- IC50 (Cbl-b): < 0.1 µM

SMILES: Cn1cnnc1CC1(c2cccc(N3Cc4c(cc(CN5CC6C(C5)C6(F)F)cc4C(F)(F)F)C3=O)c2)COC1 (stereo not drawn)
- IL-2 secretion, Anti-CD3/Anti-CD28 stimulation, fold change over baseline (T-cell [1]; 0.3 μM compound): B (B indicates 5.00-7.50 fold)
- IL-2 secretion, Anti-CD3/Anti-CD28 stimulation, fold change over baseline (T-cell [1]; 1 μM compound): A (A indicates ≥7.50 fold)
- IL-2 secretion, Anti-CD3 stimulation, fold change over baseline (T-cell [2]; 1 μM compound, primary human total T-cells): A (A indicates ≥0.201 fold)
- CD25 staining, Anti-CD3/Anti-CD28 stimulation, fold change over baseline (T-cell [3]; 0.3 μM compound): C (C indicates 1.31-1.50 fold)
- CD25 staining, Anti-CD3/Anti-CD28 stimulation, fold change over baseline (T-cell [3]; 1 μM compound): C (C indicates 1.31-1.50 fold)
- CD25 staining, Anti-CD3 stimulation, fold change over baseline (T-cell [4]; 1 μM compound, primary human total T-cells, baseline = anti-CD3/anti-CD28 stimulated cells without inhibitor): A (A indicates ≥1.001 fold)
- IC50 (Cbl-b): < 0.1 µM

SMILES: Cn1cnnc1CC1(c2cccc(N3Cc4c(cc(N5CCN6CCC[C@H]6C5)cc4C(F)(F)F)C3=O)c2)COC1
- IL-2 secretion Anti-CD3/Anti-CD28 stimulation (T-cell [1]; 0.3 μM Cbl-b inhibitor): A (A indicates ≥7.50 fold)
- IL-2 secretion Anti-CD3/Anti-CD28 stimulation (T-cell [1]; 1 μM Cbl-b inhibitor): A (A indicates ≥7.50 fold)
- IL-2 secretion Anti-CD3 stimulation (T-cell [2]): A (A indicates ≥0.201 fold)
- CD25 staining Anti-CD3/Anti-CD28 stimulation (T-cell [3]; 0.3 μM Cbl-b inhibitor): A (A indicates ≥1.76 fold)
- CD25 staining Anti-CD3/Anti-CD28 stimulation (T-cell [3]; 1 μM Cbl-b inhibitor): A (A indicates ≥1.76 fold)
- CD25 staining Anti-CD3 stimulation (T-cell [4]): A (A indicates ≥1.001 fold)
- IC50 (Cbl-b): < 0.1 µM
